In patent US8828984B2, “Gold(III) complexes containing N-heterocyclic carbene ligand, synthesis, and their applications in cancer treatment and thiol detection” (University of Hong Kong, priority 2012, dated 2014):

Experiment: Fluorescent response towards different analysts (thiol probe)

In the case of `Cn1cc[n+](C)[c]1[Au-]12[n]3c(nc4ccccc43)-c3cccc([n+]31)-c1nc3ccccc3[n]12.O=S(=O)([O-])C(F)(F)F` [Complex 9], the “Increase in emission intensity upon treatment with GSH or Cys” value (20 μM complex, 2 mM GSH or Cys, PBS:DMSO=9:1, excitation 340 nm) is reported as “at least 200 fold” and the “Fluorescence with metal ions or thiol-free amino acids” value (Na+, K+, Ca2+, Mg2+, Ala, Ser, Pro, Leu, Ile, His, 2 mM, PBS:DMSO=9:1) is reported as “No fluorescence was found”.
